These are yes or no findings as the source states them, for the method shown. Some entries that bind do so weakly or less than the wild type.
Target: HCV E2 glycoprotein of genotype 1a, C-terminally truncated form (deletion of the C-terminal Ala 746 residue) (hepatitis C virus genotype 1a, strain H) (UniProt P27958)
Assay: conclusion from hCD81-LEL precipitation and inhibition of HCVpp infection

B1: human CD81 (on Huh-7 cells and human primary hepatocytes) (receptor)
chain: MGVEGCTKCIKYLLFVFNFVFWLAGGVILGVALWLRHDPQTTNLLYLELGDKPAPNTFYVGIYILIAVGAVMMFVGFLGCYGAIQESQCLLGTFFTCLVILFACEVAAGIWGFVNKDQIAKDVKQFYDQALQQAVVDDDANNAKAVVKTFHETLDCCGSSTLTALTTSVLKNNLCPSGSNIISNLFKEDCHQKIDDLFSGKLYLIGIAAIVVAVIMIFEMILSMVLCCGIRNSSVY
binding: binds

— patent US20060222661A1
